Experimental data reported in PubChem BioAssay AID1487 (National Center for Advancing Translational Sciences (NCATS), 2009).
The list shows a part of the results. These are further read-outs of the screen, such as a control signal, another cell line or another target. No call is given for them. Most of these compounds were active or inconclusive in the main read-out, so they are no random draw. Words in brackets tell the shape of the fitted curve; partial curves, single points and poor fits give uncertain potencies.

Assay: qHTS Assay for Modulators of Lamin A Splicing
Details: HeLa LMNA splicing GFP/RFP minigene ratio, 48 h
How it was run: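 S3 HeLa cells stably expressing lamin A-EGFP splicing minigene plus DsRed2, 600 cells/well, 48 h compound exposure at 37C. Laser-scanning cytometry; analysed as GFP (500-530 nm)/RFP (575-640 nm) total intensity ratio; 0.5% DMSO vehicle.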

[1] = measured here: GFP splicing reporter channel
[2] = measured here: RFP viability control channel

| SMILES | AC50 [1] | AC50 [2] |
| --- | --- | --- |
| Cc1c(Cl)ccc2sc(NC(=O)CN3C(=O)c4ccccc4C3=O)nc12 | 0.0708 µM [falling, full curve] |  |
| Cc1ccc(NC(=O)COC(=O)c2ccc(Cl)cc2)cc1S(=O)(=O)N(C)C |  | 0.00447 µM [falling, full curve, poor fit] |
| COc1ccccc1N1CCN(CC(O)COCCOc2ccc(Br)cc2)CC1 (centres undefined) | 8.91 µM [rising, partial curve] | 22.4 µM [rising, partial curve] |
| COc1cc(-c2nnc(-c3cccs3)o2)cc(OC)c1OC | 35.5 µM [falling, partial curve, poor fit] |  |
| Cc1oc(-c2ccc(Cl)cc2)nc1CN1CCCC(C(=O)NCCCN2CCOCC2)C1 (centres undefined) | 14.1 µM [rising, single point] | 17.8 µM [rising, single point] |
| COc1ccccc1Nc1ncccc1C(=O)NCc1ccccc1 | 35.5 µM [rising, single point] |  |
| CC(=O)c1ccc(N2CCN(C(=O)c3ccc4c(=O)n(-c5ccccc5)c(=O)[nH]c4c3)CC2)cc1 | 14.1 µM [rising, single point] | 22.4 µM [rising, single point] |
| COc1ccc(CN(C(=O)c2ccco2)c2ccc(C)c(C)c2)cc1 |  | 12.6 µM [falling, single point] |
| CCCCCn1c(=O)c(Cc2ccccc2)c(O)c2ccccc21 | 14.1 µM [rising, single point] | 25.1 µM [rising, single point] |
| CCc1ccccc1NC(=O)c1cccc(NC(=O)/C=C/c2ccco2)c1 |  | 11.2 µM [rising, partial curve] |
| O=C(Nc1ccc2oc(-c3ccccc3)nc2c1)c1ccc2c(c1)OCCO2 | 12.6 µM [rising, single point] | 15.8 µM [rising, single point] |
| Cc1ccc(Nc2ccc(S(=O)(=O)N3CCOCC3)cc2[N+](=O)[O-])cc1C | 35.5 µM [rising, single point] |  |
| CCOC(=O)c1cc(-c2ccc(OC)cc2)n(CCC(=O)Nc2cccc(C(C)=O)c2)c1C | 8.91 µM [falling, partial curve] | 14.1 µM [falling, partial curve, poor fit] |
| CC(=O)c1ccc(OCC(=O)c2cc(C)n(-c3ccc4c(c3)OCO4)c2C)cc1 |  | 1.26 µM [rising, full curve] |
| Cc1ccc(S(=O)(=O)NC(=O)Nc2cc(C)on2)cc1 |  | 0.00316 µM [rising, full curve, poor fit] |
| CCOc1ccc(OCC)c(NC(=O)C2CCCN(c3nc(C)cc(C)n3)C2)c1 (centres undefined) | 35.5 µM [rising, single point] | 35.5 µM [rising, single point] |
| CCCCSC(=S)NC1CCS(=O)(=O)C1 (centres undefined) | 14.1 µM [rising, single point] | 20 µM [rising, single point] |
| Clc1nc(NCCN2CCOCC2)nc(NCc2ccccc2)n1 |  | 0.1 µM [rising, full curve, poor fit] |
| O=C(Nc1cccc(F)c1)c1ccc(-c2ccccc2Cl)o1 | 11.2 µM [rising, partial curve] | 15.8 µM [rising, partial curve] |
| COc1ccc(CC(=O)Nc2ccc3nc(C)sc3c2)cc1OC |  | 12.6 µM [rising, single point] |
| O=C(CCc1nc2cccnc2n1Cc1ccccc1)NCCc1ccc(Cl)cc1 | 5.01 µM [rising, partial curve, poor fit] | 5.62 µM [rising, partial curve, poor fit] |
| O=C(c1cc(O)c(O)c([N+](=O)[O-])c1)c1ccccc1F | 6.31 µM [falling, full curve, poor fit] | 5.62 µM [falling, full curve, poor fit] |
| COc1ccccc1OCCOc1ccc(C(=O)c2ccccc2)cc1 | 20 µM [rising, partial curve, poor fit] | 28.2 µM [rising, partial curve] |
| COc1ccc(N2CCN(Cc3cc(=O)oc4cc(C)c(Cl)c(C)c34)CC2)cc1 |  | 1 µM [rising, partial curve, poor fit] |
| O=C(Nc1ccccc1)Nc1ccc(S(=O)(=O)N2CCCCC2)cc1 |  | 12.6 µM [rising, partial curve, poor fit] |
| Nc1ccc(N2CCN(C(=O)c3ccco3)CC2)cc1 | 7.94 µM [falling, partial curve] |  |
| CCOc1ccc(NC(=O)Cn2cncc2-c2ccc([N+](=O)[O-])cc2)cc1 | 25.1 µM [falling, single point] | 11.2 µM [falling, partial curve] |

| SMILES | AC50 [1] | AC50 [2] |
| --- | --- | --- |
| c1ccc(CNc2ncnc3sc4c(c23)CCC4)nc1 | 11.2 µM [rising, partial curve] | 14.1 µM [rising, single point] |
| Cc1ccccc1N=Nc1ccc(O)c2ncccc12 | 4.47 µM [rising, partial curve] | 3.98 µM [rising, full curve] |
| Cc1cccc(C(=O)NC(NC(=S)Nc2ccc(S(N)(=O)=O)cc2)C(Cl)(Cl)Cl)c1 (centres undefined) |  | 14.1 µM [rising, single point] |
| CCOC(=O)C1=C(C)NC(C)=C(C(=O)OCC)C1C(=O)OCC(=O)N1CCc2ccccc21 | 31.6 µM [rising, single point] |  |
| CCOC(=O)N1CCN(c2ccc(O)cc2)CC1 | 17.8 µM [falling, single point] |  |
| CC(C)c1cccc(C(C)C)c1NC(=O)COC(=O)c1ccc(OCC(=O)Nc2cccc(C(F)(F)F)c2)cc1 |  | 0.501 µM [rising, full curve, poor fit] |
| Oc1c(C(c2ccc(Cl)cc2Cl)N2CCCC2)sc2nc(-c3ccco3)nn12 (centres undefined) | 2.82 µM [falling, partial curve, poor fit] |  |
| Cc1ccc(N=CC=C2OC(C)(C)C(C)(C)O2)c(C)c1 | 12.6 µM [rising, single point] | 10 µM [rising, partial curve, poor fit] |
| COc1cc2c(cc1OC)C(c1ccc(-c3ccccc3Cl)o1)=NCC2 |  | 22.4 µM [rising, single point] |
| CN(C)S(=O)(=O)c1ccc(NC(=O)/C=C/c2ccccc2Cl)cc1 | 11.2 µM [rising, single point] | 11.2 µM [rising, partial curve, poor fit] |
| CCC(C(=O)Nc1ccccc1OC)n1c(C(=O)OC)cc2ccsc21 (centres undefined) | 0.178 µM [rising, full curve] |  |
| O=C(CN1CCOCC1)Nc1ccccc1 | 3.16 µM [falling, single point] | 3.16 µM [falling, single point] |
| O=C(Nc1ccc(N2CCN(C(=O)c3ccco3)CC2)cc1)c1cccnc1Cl |  | 0.0447 µM [falling, full curve, poor fit] |
| COc1ccc(C2C(C#N)=C(N)Oc3c2c(-c2ccccc2)nn3-c2ccccc2)c(OC)c1OC (centres undefined) |  | 35.5 µM [rising, single point] |
| N#C/C(=C\c1ccc([N+](=O)[O-])o1)C(=O)Nc1ccc(F)cc1 | 35.5 µM [falling, partial curve] | 28.2 µM [falling, partial curve] |
| CCOc1ccc(CSCCNC(=S)Nc2ccccc2)cc1 |  | 14.1 µM [rising, single point] |
| O=c1[nH]ccc2c(O)cccc12 | 1.12 µM [falling, partial curve] | 31.6 µM [rising, single point] |
| C=CCn1c(=NC(=O)c2ccccc2[N+](=O)[O-])sc2cc(S(C)(=O)=O)ccc21 |  | 14.1 µM [rising, single point] |
| COc1cccc(NC(=O)c2oc3ccc(S(=O)(=O)N4CCC5(CC4)OCCO5)cc3c2C)c1 | 5.62 µM [falling, single point] | 7.94 µM [falling, single point] |
| Cc1ccccc1CSCc1ccc(C(=O)NCCc2ccccc2)o1 | 1.12 µM [falling, partial curve, poor fit] | 6.31 µM [falling, partial curve] |
| CCC(CO)NCc1ccccc1OC(C)C (centres undefined) | 0.251 µM [rising, full curve, poor fit] |  |
| O=c1c(-c2ccccc2)nc2cncnc2n1Cc1ccccc1 | 0.282 µM [falling, full curve, poor fit] | 0.355 µM [falling, full curve, poor fit] |
| CCN(CCCCOC(=O)c1ccc(OC)c(OC)c1)C(C)Cc1ccc(OC)cc1 (centres undefined) | 22.4 µM [falling, single point] | 0.501 µM [falling, partial curve, poor fit] |
| S=C(NCC1CCCO1)Nc1ccc(Cl)c(Cl)c1 (centres undefined) |  | 11.2 µM [rising, partial curve, poor fit] |
| Cc1cccc(Cn2cnc3c(N)c(C)c(C)cc32)c1 |  | 35.5 µM [falling, single point] |
| Cc1cc(C)c2nc(NNC(=O)c3ccc(S(=O)(=O)N4CCCC(C)C4)cc3)sc2c1 (centres undefined) | 31.6 µM [falling, single point] | 14.1 µM [rising, single point] |
| CC(=O)Nc1ccc(Nc2ccc(S(=O)(=O)C(F)(F)F)cc2[N+](=O)[O-])cc1 |  | 20 µM [rising, single point] |

Part of the list above, set out differently:
SMILES	AC50 [1]	AC50 [2]
CN(C)S(=O)(=O)c1ccc(NC(=O)/C=C/c2ccccc2Cl)cc1	11.2 µM [rising, single point]	11.2 µM [rising, partial curve, poor fit]
CCC(C(=O)Nc1ccccc1OC)n1c(C(=O)OC)cc2ccsc21 (centres undefined)	0.178 µM [rising, full curve]	
O=C(CN1CCOCC1)Nc1ccccc1	3.16 µM [falling, single point]	3.16 µM [falling, single point]
O=C(Nc1ccc(N2CCN(C(=O)c3ccco3)CC2)cc1)c1cccnc1Cl		0.0447 µM [falling, full curve, poor fit]
COc1ccc(C2C(C#N)=C(N)Oc3c2c(-c2ccccc2)nn3-c2ccccc2)c(OC)c1OC (centres undefined)		35.5 µM [rising, single point]
N#C/C(=C\c1ccc([N+](=O)[O-])o1)C(=O)Nc1ccc(F)cc1	35.5 µM [falling, partial curve]	28.2 µM [falling, partial curve]
CCOc1ccc(CSCCNC(=S)Nc2ccccc2)cc1		14.1 µM [rising, single point]
O=c1[nH]ccc2c(O)cccc12	1.12 µM [falling, partial curve]	31.6 µM [rising, single point]
C=CCn1c(=NC(=O)c2ccccc2[N+](=O)[O-])sc2cc(S(C)(=O)=O)ccc21		14.1 µM [rising, single point]
COc1cccc(NC(=O)c2oc3ccc(S(=O)(=O)N4CCC5(CC4)OCCO5)cc3c2C)c1	5.62 µM [falling, single point]	7.94 µM [falling, single point]
Cc1ccccc1CSCc1ccc(C(=O)NCCc2ccccc2)o1	1.12 µM [falling, partial curve, poor fit]	6.31 µM [falling, partial curve]
CCC(CO)NCc1ccccc1OC(C)C (centres undefined)	0.251 µM [rising, full curve, poor fit]	
O=c1c(-c2ccccc2)nc2cncnc2n1Cc1ccccc1	0.282 µM [falling, full curve, poor fit]	0.355 µM [falling, full curve, poor fit]
CCN(CCCCOC(=O)c1ccc(OC)c(OC)c1)C(C)Cc1ccc(OC)cc1 (centres undefined)	22.4 µM [falling, single point]	0.501 µM [falling, partial curve, poor fit]
S=C(NCC1CCCO1)Nc1ccc(Cl)c(Cl)c1 (centres undefined)		11.2 µM [rising, partial curve, poor fit]
